Values of other authors as cited in PMC7284918, “In-Depth Characterization of EpiIntestinal Microtissue as a Model for Intestinal Drug Absorption and Metabolism in Human” (Pharmaceutics, 2020).

Settings: human, clinical; cited from earlier work

## CC(C)c1c(C(=O)Nc2ccccc2)c(-c2ccccc2)c(-c2ccc(F)cc2)n1CC[C@@H](O)C[C@@H](O)CC(=O)O [Atorvastatin]
  F (total oral availability): 0.14 [17]
  fe (fraction of renal excretion): 0.01 [18]
